Test results published in patent US12195506B2, “Immunotherapy with A*01 restricted peptides and combination of peptides against cancers and related methods” (Immatics Biotechnologies GmbH, priority 2018, dated 2025).

Assays:
[1] = test system: HLA molecules of primary tumors and normal tissue samples; assay: Identification and relative quantitation of HLA ligands by LC-MS (peptide presentation on tumor versus normal tissue); design: species or system human; settings: cancer entities on which the peptide was found presented (HLA ligands, LC-MS); abbreviations as in title of Table 8
source genes (mRNA) = assay: Expression profiling of genes encoding the peptides (RNAseq, tumor versus normal tissues); design: species or system human
[2] = source gene of the peptide, value = tumor type in which the gene is highly over-expressed compared to a panel of normal tissues
[3] = source gene of the peptide, value = tumor type in which the gene is over-expressed compared to a panel of normal tissues
[4] = tumor types in which the source gene is over-expressed (+) compared to a panel of normal tissues
[5] = tumor types in which the source gene is highly over-expressed (++) compared to a panel of normal tissues

Row | Substance | Peptide Presentation on cancer entities [1] | Gene Expression in tumor samples: Highly over-expressed (++) (source genes (mRNA); [2]) | Gene Expression in tumor samples: over-expressed (+) (source genes (mRNA); [3]) | Gene Expression in tumor samples: over-expressed (+) (source genes (mRNA); [4]) | Gene Expression in tumor samples: Highly over-expressed (++) (source genes (mRNA); [5])
1 | 195: peptide found in ROS1 (gene looked up) (YTADNEMGYY; listed as Homo sapiens) [compound 195] | NSCLCadeno, NSCLCother | NSCLCadeno | NSCLCother, NSCLCsquam |  | 
2 | 197: peptide found in PDE11A (gene looked up) (NDEIDKLTGY; listed as Homo sapiens) [compound 197] | MEL | PRCA |  |  | 
3 | 198: peptide found in PTPRZ1 (gene looked up) (KLTDYINANY; listed as Homo sapiens) [compound 198] | GBM | GBM |  |  | 
4 | 199: peptide found in UGT1A3 (gene looked up) (LCAAVLAKY; listed as Homo sapiens) [compound 199] | MEL | HCC |  |  | 
5 | 200: peptide found in FERMT1 (gene looked up) (SLPEFGLTY; listed as Homo sapiens) [compound 200] | GBM, RCC | CRC |  |  | 
6 | 201: peptide found in FERMT1 (gene looked up) (SLPEFGLTYY; listed as Homo sapiens) [compound 201] | OSCAR | CRC |  |  | 
7 | 202: peptide found in GPR143 (gene looked up) (QTDINGGSLK; listed as Homo sapiens) [compound 202] | MEL | MEL |  |  | 
8 | 204: peptide found in BTLA (gene looked up) (NVKEAPTEY; listed as Homo sapiens) [compound 204] | NSCLCother | CLL | NHL |  | 
9 | 205: peptide found in BTLA (gene looked up) (RMQEGSEVY; listed as Homo sapiens) [compound 205] | MEL | CLL | NHL |  | 
10 | 206: peptide found in ABCC4 (gene looked up) (RVFVAVTLY; listed as Homo sapiens) [compound 206] | OC, PRCA | PRCA |  |  | 
11 | 208: peptide found in IGF1R (gene looked up) (LLISKAEDY; listed as Homo sapiens) [compound 208] | MEL | BRCA |  |  | 
12 | 216: peptide found in HCAR1 (gene looked up) (NSMLDPLVY; listed as Homo sapiens) [compound 216] | BRCA, HNSCC, NSCLCsquam, UBC | BRCA | UBC |  | 
13 | 218: peptide found in ROS1 (gene looked up) (FTAQLQLY; listed as Homo sapiens) [compound 218] | GBC | NSCLCadeno | NSCLCother, NSCLCsquam |  | 
14 | 229: peptide found in ABCB11 (gene looked up) (MTDVFIDY; listed as Homo sapiens) [compound 229] | NSCLCsquam |  | HCC |  | 
15 | 232: peptide found in CXCR3 (gene looked up) (RYLNIVHATQLY; listed as Homo sapiens) [compound 232] | CLL |  | CLL |  | 
16 | 248: peptide found in CDK6 (gene looked up) (VTDIDELGK; listed as Homo sapiens) [compound 248] | GBM |  | AML |  | 
17 | 252: peptide found in ADCY8 (gene looked up) (DTTSHTYLQY; listed as Homo sapiens) [compound 252] | OSCAR |  | GBM |  | 
18 | 256: peptide found in MET (gene looked up) (HAFESNNFIY; listed as Homo sapiens) [compound 256] | GBC |  | GBC and NSCLCadeno |  | 
19 | 257: peptide found in MET (gene looked up) (KSEMNVNMKY; listed as Homo sapiens) [compound 257] | BRCA, GBC, NSCLCsquam, PRCA, UEC |  | GBC and NSCLCadeno |  | 

Row | Substance | Peptide Presentation on cancer entities [1] | Gene Expression in tumor samples: Highly over-expressed (++) (source genes (mRNA); [2]) | Gene Expression in tumor samples: over-expressed (+) (source genes (mRNA); [3]) | Gene Expression in tumor samples: over-expressed (+) (source genes (mRNA); [4]) | Gene Expression in tumor samples: Highly over-expressed (++) (source genes (mRNA); [5])
20 | 266: peptide found in TTPA (gene looked up) (LTDSFLLRF; listed as Homo sapiens) [compound 266] | HCC |  | HCC |  | 
21 | 268: peptide found in ABCC4 (gene looked up) (AILHHLYFY; listed as Homo sapiens) [compound 268] | BRCA |  | PRCA |  | 
22 | 280: peptide found in MET (gene looked up) (TTEMVSNESVDY; listed as Homo sapiens) [compound 280] | GBC |  | GBC and RCC |  | 
23 | 281: peptide found in NUP155 (gene looked up) (YPDLSELLM; listed as Homo sapiens) [compound 281] | AML, RCC, UEC |  | CCC; MEL and OSCAR and UBC |  | 
24 | 293: peptide found in SLC6A5 (gene looked up) (IISVLIAIY; listed as Homo sapiens) [compound 293] | BRCA |  | SCLC |  | 
25 | 305: peptide found in MYO3B (gene looked up) (YADLLIYTY; listed as Homo sapiens) [compound 305] | NSCLCadeno, UBC |  |  | HNSCC, OC, UBC, UEC | 
26 | 315: peptide found in CCDC6 (gene looked up) (VLKIELETY; listed as Homo sapiens) [compound 315] | GBM, GC, NSCLCadeno, NSCLCsquam, OC, PACA, PRCA, RCC |  |  | OC, UEC | 
27 | 328: peptide found in HUNK (gene looked up) (LLDEDNNIKL; listed as Homo sapiens) [compound 328] | GBC |  |  | CRC, SCLC | 
28 | 345: peptide found in SLC12A2 (gene looked up) (NTMDAVPRIDHY; listed as Homo sapiens) [compound 345] | GBC, GC |  |  | CRC | 
29 | 349: peptide found in OR5AC2 (gene looked up) (HLLSVSLYY; listed as Homo sapiens) [compound 349] | NSCLCsquam |  |  | HCC | 
30 | 359: peptide found in ADCY10 (gene looked up) (NKEINYFMY; listed as Homo sapiens) [compound 359] | CCC |  |  | HCC | 
31 | 361: peptide found in AR (gene looked up) (FTAEEGQLY; listed as Homo sapiens) [compound 361] | BRCA, GBC, GBM, HCC, NSCLCadeno, NSCLCother, NSCLCsquam, PACA, PRCA, RCC, SCLC, UBC, UEC |  |  | HCC, PRCA | 
32 | 362: peptide found in AR (gene looked up) (SGALDEAAAY; listed as Homo sapiens) [compound 362] | GBM, NSCLCadeno, PRCA |  |  | HCC, PRCA | 
33 | 374: peptide found in CDK6 (gene looked up) (LTSVVVTLW; listed as Homo sapiens) [compound 374] | HCC |  |  | AML | 
34 | 381: peptide found in NRG1 (gene looked up) (ETSFSTSHY; listed as Homo sapiens) [compound 381] | HNSCC |  |  | HNSCC, OSCAR | 
35 | 386: peptide found in KISS1R (gene looked up) (NSALNPLLY; listed as Homo sapiens) [compound 386] | BRCA, NSCLCadeno |  |  | NSCLCadeno, UEC | RCC
36 | 387: peptide found in TYR (gene looked up) (LMEKEDYHSLY; listed as Homo sapiens) [compound 387] | MEL |  |  |  | MEL
37 | 389: peptide found in DNTT (gene looked up) (YYDLVESTF; listed as Homo sapiens) [compound 389] | AML |  |  |  | AML
38 | 398: peptide found in SLC12A2 (gene looked up) (YYYDTHTNTY; listed as Homo sapiens) [compound 398] | HNSCC, PRCA |  |  | CRC | 

For some of these results: For expression read-outs the peptide stands for its source gene, whose mRNA was measured; the gene is not named for every peptide.
